Construct, isoform or probe ends are uncertain for at least one entry. For part of these data: A negative result means that nothing was seen under these conditions.
Columns and labels:
Assay in all cases: EMSA
[1] = test system: GST-GmHDA7 (Glycine max); settings: alone, also no supershift with MBP-GmRVE5 without GmHE13; LightShift EMSA kit binding buffer (composition not stated), 2 ug MBP-GmOBP3, 10 min then 20 min with probe at room temperature, 7% PAGE; pull-down 30 min at RT; recombinant protein; protein details: GST; label: biotin
[2] = test system: MBP-GmRVE5 + His-GmHE13Sin3 + GST-GmHDA7; settings: supershift of the GmRVE5-DNA complex; LightShift EMSA kit binding buffer (composition not stated), 2 ug MBP-GmOBP3, 10 min then 20 min with probe at room temperature, 7% PAGE; pull-down 30 min at RT; recombinant protein; protein details: MBP,His,GST; label: biotin
[3] = test system: MBP-GmRVE5 (Glycine max); settings: LightShift EMSA kit binding buffer (composition not stated), 2 ug MBP-GmOBP3, 10 min then 20 min with probe at room temperature, 7% PAGE; pull-down 30 min at …; recombinant protein; protein details: MBP; label: biotin

Chains of the proteins cited; added tags and fusions are not shown. Chains listed by the source or under a name are the forms on record and can include a tag or linker.
GST-GmHDA7 (Glycine max), one chain, as listed by the source: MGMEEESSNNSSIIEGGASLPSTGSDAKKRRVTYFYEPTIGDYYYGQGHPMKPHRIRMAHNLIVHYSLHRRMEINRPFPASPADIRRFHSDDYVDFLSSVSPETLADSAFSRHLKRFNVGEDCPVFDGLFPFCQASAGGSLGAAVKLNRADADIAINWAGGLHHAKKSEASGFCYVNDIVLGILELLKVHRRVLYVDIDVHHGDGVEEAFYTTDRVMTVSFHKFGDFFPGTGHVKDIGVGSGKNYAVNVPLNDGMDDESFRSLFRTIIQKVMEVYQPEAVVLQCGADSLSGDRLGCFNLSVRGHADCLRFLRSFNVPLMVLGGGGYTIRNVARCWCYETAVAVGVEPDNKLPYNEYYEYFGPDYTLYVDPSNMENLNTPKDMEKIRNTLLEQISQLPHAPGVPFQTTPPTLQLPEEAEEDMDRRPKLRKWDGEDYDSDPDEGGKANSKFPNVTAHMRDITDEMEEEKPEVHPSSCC

Sequence | binding result [1] | binding result [2] | binding result [3]
AAGTAAAATATCTTAAAGTAAAATATCTTA (double strand) [GmEXLB1-1 EE probe] | no binding | binds | binds
AGTACAAATATCTATAGTACAAATATCTAT (double strand) [GmEXLB1-2 EE probe] | no binding | binds | binds

Source: publication PMC12665065
